Laboratory results reported in paper PMC13631264.
Results are given in words; binding and its absence hold for the method and conditions named. Binding seen in cells or lysates may run through a third protein. A yes stands for co-enrichment or nearness to the bait. Other partners may have been found. Each block holds one molecule with its values, some of them ahead of it.

Amino acid sequences for entries named in this document (tags omitted). Residues count along the entry.
UniProt P15208, residues 28-1372: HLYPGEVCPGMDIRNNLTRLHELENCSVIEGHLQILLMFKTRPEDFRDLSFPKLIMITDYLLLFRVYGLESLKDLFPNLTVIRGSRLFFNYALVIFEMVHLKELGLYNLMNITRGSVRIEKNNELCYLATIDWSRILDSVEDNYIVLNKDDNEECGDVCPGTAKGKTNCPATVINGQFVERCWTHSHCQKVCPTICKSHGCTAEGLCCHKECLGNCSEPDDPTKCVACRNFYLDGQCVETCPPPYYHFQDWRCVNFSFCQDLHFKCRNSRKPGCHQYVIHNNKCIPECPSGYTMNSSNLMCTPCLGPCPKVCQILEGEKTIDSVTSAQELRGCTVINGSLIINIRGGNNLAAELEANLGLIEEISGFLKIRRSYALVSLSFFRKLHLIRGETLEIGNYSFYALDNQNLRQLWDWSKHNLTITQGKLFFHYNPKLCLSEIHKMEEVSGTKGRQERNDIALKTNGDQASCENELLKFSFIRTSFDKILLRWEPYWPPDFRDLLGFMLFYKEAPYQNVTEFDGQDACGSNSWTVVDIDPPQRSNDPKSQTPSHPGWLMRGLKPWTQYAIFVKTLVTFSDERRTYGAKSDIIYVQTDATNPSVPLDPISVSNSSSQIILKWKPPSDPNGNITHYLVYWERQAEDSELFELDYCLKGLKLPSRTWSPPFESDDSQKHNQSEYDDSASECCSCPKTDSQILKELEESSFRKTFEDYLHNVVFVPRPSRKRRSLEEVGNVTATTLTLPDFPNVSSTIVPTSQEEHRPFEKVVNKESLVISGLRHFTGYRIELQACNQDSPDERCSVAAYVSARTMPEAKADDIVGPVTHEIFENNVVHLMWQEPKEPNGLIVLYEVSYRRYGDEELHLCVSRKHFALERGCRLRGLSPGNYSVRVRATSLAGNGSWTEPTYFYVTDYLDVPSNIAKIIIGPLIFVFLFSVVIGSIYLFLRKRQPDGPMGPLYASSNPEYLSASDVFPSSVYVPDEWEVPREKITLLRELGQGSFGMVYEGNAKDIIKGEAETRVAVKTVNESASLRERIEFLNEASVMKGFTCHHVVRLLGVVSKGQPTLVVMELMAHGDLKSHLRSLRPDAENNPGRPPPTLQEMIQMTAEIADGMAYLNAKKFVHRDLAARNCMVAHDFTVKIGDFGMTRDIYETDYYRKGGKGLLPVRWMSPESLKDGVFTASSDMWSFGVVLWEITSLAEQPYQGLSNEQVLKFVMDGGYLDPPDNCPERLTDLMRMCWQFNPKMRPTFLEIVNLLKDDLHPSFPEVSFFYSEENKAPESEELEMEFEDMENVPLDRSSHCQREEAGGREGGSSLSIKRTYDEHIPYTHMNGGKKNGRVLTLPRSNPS
UniProt P63208: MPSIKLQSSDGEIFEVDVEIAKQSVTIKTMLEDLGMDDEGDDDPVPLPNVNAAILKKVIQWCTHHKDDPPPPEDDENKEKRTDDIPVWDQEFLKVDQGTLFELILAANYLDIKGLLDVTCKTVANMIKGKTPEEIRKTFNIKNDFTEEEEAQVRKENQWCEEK

Target: IR-Flag (insulin receptor with Flag tag) (UniProt P15208)
Assay: affinity purification with mass spectrometry; HEK293T cells transfected with IR-Flag, treated with MG132; NP-40 lysis buffer; anti-FLAG M2 affinity gel overnight, elution with Flag peptides, SDS-PAGE, silver stain, LC-MS/MS of excised bands

binding: binds
Molecule: SKP1 (endogenous in HEK293T cells) (from UniProt P63208 1-163)

binding: binds
B1: FBXO2 (endogenous in HEK293T cells) (protein, UniProt Q9UK22 1-296)
chain: MDGDGDPESVGQPEEASPEEQPEEASAEEERPEDQQEEEAAAAAAYLDELPEPLLLRVLAALPAAELVQACRLVCLRWKELVDGAPLWLLKCQQEGLVPEGGVEEERDHWQQFYFLSKRRRNLLRNPCGEEDLEGWCDVEHGGDGWRVEELPGDSGVEFTHDESVKKYFASSFEWCRKAQVIDLQAEGYWEELLDTTQPAIVVKDWYSGRSDAGCLYELTVKLLSEHENVLAEFSSGQVAVPQDSDGGGWMEISHTFTDYGPGVRFVRFEHGGQDSVYWKGWFGARVTNSSVWVEP
